Source: paper PMC7948425
No constants are given. Whether binding was seen depends on the method and setting. Binding seen in cells or lysates may run through a third protein. These calls come from enrichment with a bait or labelling near it, and not all partners need be listed. A no says only that the protein was not detected with the bait. Tags and fused reporters may be left off the sequences shown. Blank lines part the entries; values can stand above or below the binder they belong to.

Target: T1, FLAG-streptavidin-binding peptide (FSBP) dual epitope-tagged USP13, from the gene-edited endogenous allele (human (endogenous in HCT116)), Q92995
T1 chain: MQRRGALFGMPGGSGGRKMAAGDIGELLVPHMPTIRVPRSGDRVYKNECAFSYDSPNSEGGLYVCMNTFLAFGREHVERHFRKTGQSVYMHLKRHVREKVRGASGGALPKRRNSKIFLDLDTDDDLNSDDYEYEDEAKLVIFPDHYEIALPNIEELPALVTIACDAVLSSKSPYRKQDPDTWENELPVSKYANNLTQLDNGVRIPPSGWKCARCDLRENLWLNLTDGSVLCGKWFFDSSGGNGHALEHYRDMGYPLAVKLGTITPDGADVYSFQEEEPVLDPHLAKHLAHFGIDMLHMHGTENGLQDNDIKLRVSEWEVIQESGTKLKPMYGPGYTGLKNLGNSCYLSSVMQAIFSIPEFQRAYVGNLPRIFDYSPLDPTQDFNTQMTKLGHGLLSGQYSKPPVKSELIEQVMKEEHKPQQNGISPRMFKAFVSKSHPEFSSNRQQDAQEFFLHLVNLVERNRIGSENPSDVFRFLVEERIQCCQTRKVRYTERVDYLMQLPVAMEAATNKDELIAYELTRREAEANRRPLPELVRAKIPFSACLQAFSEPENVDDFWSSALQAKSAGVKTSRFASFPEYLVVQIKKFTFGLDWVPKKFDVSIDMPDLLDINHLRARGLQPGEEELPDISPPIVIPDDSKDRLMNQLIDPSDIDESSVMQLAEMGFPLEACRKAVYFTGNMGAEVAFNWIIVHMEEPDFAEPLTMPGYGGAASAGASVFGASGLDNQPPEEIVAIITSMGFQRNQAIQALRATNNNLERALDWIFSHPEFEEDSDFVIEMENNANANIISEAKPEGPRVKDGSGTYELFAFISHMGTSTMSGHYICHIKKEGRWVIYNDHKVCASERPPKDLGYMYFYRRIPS
Assay: affinity purification with mass spectrometry; dual-affinity purification (FLAG M2 beads, FLAG peptide elution, then streptavidin resin, biotin elution; TBS 150 mM NaCl) of FSBP-USP13 from 60 mg HCT116 nuclear extract, parental cells as control, GeLC-MS/MS
Settings: remark: other sources report otherwise

binding: no binding
B1: IL-1R8, Q6IA17 1-410 (receptor)
chain: MPGVCDRAPDFLSPSEDQVLRPALGSSVALNCTAWVVSGPHCSLPSVQWLKDGLPLGIGGHYSLHEYSWVKANLSEVLVSSVLGVNVTSTEVYGAFTCSIQNISFSSFTLQRAGPTSHVAAVLASLLVLLALLLAALLYVKCRLNVLLWYQDAYGEVEINDGKLYDAYVSYSDCPEDRKFVNFILKPQLERRRGYKLFLDDRDLLPRAEPSADLLVNLSRCRRLIVVLSDAFLSRAWCSHSFREGLCRLLELTRRPIFITFEGQRRDPAHPALRLLRQHRHLVTLLLWRPGSVTPSSDFWKEVQLALPRKVQYRPVEGDPQTQLQDDKDPMLILRGRVPEGRALDSEVDPDPEGDLGVRGPVFGEPSAPPHTSGVSLGESRSSEVDVSDLGSRNYSARTDFYCLVSKDDM

binding: no binding
B2: GP78, Q9UKV5 1-643 (protein)
chain: MPLLFLERFPWPSLRTYTGLSGLALLGTIISAYRALSQPEAGPGEPDQLTASLQPEPPAPARPSAGGPRARDVAQYLLSDSLFVWVLVNTACCVLMLVAKLIQCIVFGPLRVSERQHLKDKFWNFIFYKFIFIFGVLNVQTVEEVVMWCLWFAGLVFLHLMVQLCKDRFEYLSFSPTTPMSSHGRVLSLLVAMLLSCCGLAAVCSITGYTHGMHTLAFMAAESLLVTVRTAHVILRYVIHLWDLNHEGTWEGKGTYVYYTDFVMELTLLSLDLMHHIHMLLFGNIWLSMASLVIFMQLRYLFHEVQRRIRRHKNYLRVVGNMEARFAVATPEELAVNNDDCAICWDSMQAARKLPCGHLFHNSCLRSWLEQDTSCPTCRMSLNIADNNRVREEHQGENLDENLVPVAAAEGRPRLNQHNHFFHFDGSRIASWLPSFSVEVMHTTNILGITQASNSQLNAMAHQIQEMFPQVPYHLVLQDLQLTRSVEITTDNILEGRIQVPFPTQRSDSIRPALNSPVERPSSDQEEGETSAQTERVPLDLSPRLEETLDFGEVEVEPSEVEDFEARGSRFSKSADERQRMLVQRKDELLQQARKRFLNKSSEDDAASESFLPSEGASSDPVTLRRRMLAAAAERRLQKQQTS
